Data as given in PubChem BioAssay AID1671195 (Yale University, 2021)
This is one part, drawn at random, of about 22,000 reagents. About 1,510 of all reagents (6.9%) count as active. 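Active includes knockdowns raising or lowering LDL uptake; positive z-scores mean more uptake, negative mean less.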 Reagent sequences are not shown.

- Aim: 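Knockdowns that increase or decrease uptake of fluorescent LDL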 (primary screen)
- System: human Huh7 hepatoma cells
- Reagents: siRNA pool against human genes, 18 nM
- Time to read-out: about 2 to 2.5 days of knockdown, then 8 h LDL uptake
- Conditions: DiI-labelled LDL at 30 µg/ml for 8 h, in lipoprotein-deficient serum medium
- Measured: 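Per-cell DiI-LDL intensity by automated imaging; well means scaled to the plate median and given as a robust z-score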
- Reading the numbers: robust z-score: higher = more LDL uptake after knockdown
- Rule for the call: 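Active when two or more replicates show a robust z-score above 2 or below -2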

For FGF11 [SID442894992], the values are robust z-score, replicate 1 = -0.075; robust z-score, replicate 2 = -0.333; robust z-score, replicate 3 = 0.0439; inactive. Against APOL5 [SID442887640] the deposit lists robust z-score, replicate 1 = 0.874; robust z-score, replicate 2 = 1.38; robust z-score, replicate 3 = 0.361; inactive. Against CHIA [SID442895005], the entry reads robust z-score, replicate 1 = -1.04; robust z-score, replicate 2 = 0.729; robust z-score, replicate 3 = -0.0546; inactive. With knock-down of HTRA3 [SID442885551], the record shows robust z-score, replicate 1 = 0.441; robust z-score, replicate 2 = 2.58; robust z-score, replicate 3 = 1.39; inactive. Against FAM167B [SID442889533], the entry reads robust z-score, replicate 1 = 0.38; robust z-score, replicate 2 = 0.801; robust z-score, replicate 3 = 0.453; inactive. After knock-down of PRELID3B [SID442904630], the record shows robust z-score, replicate 1 = -0.801; robust z-score, replicate 2 = -3.17; robust z-score, replicate 3 = -1.32; inactive.

Silencing of PTPRM [SID442902649] came out at: robust z-score, replicate 1 = -0.978; robust z-score, replicate 2 = -1.09; robust z-score, replicate 3 = -1.29; inactive. RADIL [SID442895840] gave robust z-score, replicate 1 = -1.15; robust z-score, replicate 2 = -1.78; robust z-score, replicate 3 = 2.29; inactive. For OR1B1 [SID442887791], the values are robust z-score, replicate 1 = 1.16; robust z-score, replicate 2 = 0.572; robust z-score, replicate 3 = 0.786; inactive. For USP45 [SID442893359], the entry reads robust z-score, replicate 1 = -0.185; robust z-score, replicate 2 = 0.567; robust z-score, replicate 3 = -0.202; inactive. IBSP [SID442901504] showed robust z-score, replicate 1 = -1.1; robust z-score, replicate 2 = -0.72; robust z-score, replicate 3 = -0.909; inactive. Against CLLU1 [SID442884604], the values are robust z-score, replicate 1 = 3.41; robust z-score, replicate 2 = 3.03; robust z-score, replicate 3 = 2.54; inactive.

For NBAS [SID442903874], the entry reads robust z-score, replicate 1 = -0.561; robust z-score, replicate 2 = -2.03; robust z-score, replicate 3 = -1.66; inactive. TNFRSF13B [SID442888777] scored robust z-score, replicate 1 = 0.351; robust z-score, replicate 2 = 1.09; robust z-score, replicate 3 = 0.551; inactive. After knock-down of CACNG2 [SID442889455], the record shows robust z-score, replicate 1 = -0.00116; robust z-score, replicate 2 = 1.27; robust z-score, replicate 3 = 0.401; inactive. With knock-down of PINK1 [SID442903201] the results were robust z-score, replicate 1 = -1.26; robust z-score, replicate 2 = -0.853; robust z-score, replicate 3 = -1.61; inactive. With knock-down of WNK3 [SID442901063] the results were robust z-score, replicate 1 = -1.02; robust z-score, replicate 2 = -0.858; robust z-score, replicate 3 = -0.656; inactive. UGT1A6 [SID442886935] scored robust z-score, replicate 1 = 0.647; robust z-score, replicate 2 = 1.19; robust z-score, replicate 3 = 1.24; inactive.

In a second layout: 4 of the entries above.
target	PubChem SID	robust z-score, replicate 1	robust z-score, replicate 2	robust z-score, replicate 3	Call
CLLU1	SID442884604	3.41	3.03	2.54	inactive
NBAS	SID442903874	-0.561	-2.03	-1.66	inactive
TNFRSF13B	SID442888777	0.351	1.09	0.551	inactive
CACNG2	SID442889455	-0.00116	1.27	0.401	inactive

The listing continues.
Knock-down of RHOU [SID442903833] gave: robust z-score, replicate 1 = -1.78; robust z-score, replicate 2 = -0.896; robust z-score, replicate 3 = -1.53; inactive. Depletion of ZNF736P2Y [SID442894449] resulted in: robust z-score, replicate 1 = -0.212; robust z-score, replicate 2 = 0.0751; robust z-score, replicate 3 = -0.058; inactive. GPR85 [SID442887054] scored robust z-score, replicate 1 = 1.83; robust z-score, replicate 2 = 0.156; robust z-score, replicate 3 = 0.998; inactive. For ATG4A [SID442889887], the entry reads robust z-score, replicate 1 = 0.398; robust z-score, replicate 2 = 0.788; robust z-score, replicate 3 = 0.294; inactive. Silencing of IL4I1 [SID442883726] gave: robust z-score, replicate 1 = 2.66; robust z-score, replicate 2 = 2.25; robust z-score, replicate 3 = 2.3; active. For TNFRSF1B [SID442901946], the entry reads robust z-score, replicate 1 = -1.29; robust z-score, replicate 2 = -0.756; robust z-score, replicate 3 = -0.909; inactive.

NBPF17P [SID442891297] gave robust z-score, replicate 1 = 0.0988; robust z-score, replicate 2 = 0.651; robust z-score, replicate 3 = 0.161; inactive. Against LINC00614 [SID442890535], the entry reads robust z-score, replicate 1 = 0.325; robust z-score, replicate 2 = 0.238; robust z-score, replicate 3 = 0.65; inactive. For SLC2A2 [SID442904565] the deposit lists robust z-score, replicate 1 = -1.63; robust z-score, replicate 2 = -1.96; robust z-score, replicate 3 = -1.56; inactive. After knock-down of LRGUK [SID442886591], the record shows robust z-score, replicate 1 = 1.32; robust z-score, replicate 2 = 0.391; robust z-score, replicate 3 = 1.63; inactive. Knock-down of ZNF678 [SID442901862] came out at: robust z-score, replicate 1 = -1.32; robust z-score, replicate 2 = -1.1; robust z-score, replicate 3 = -0.502; inactive. CYP26A1 [SID442897684] showed robust z-score, replicate 1 = -0.167; robust z-score, replicate 2 = -0.629; robust z-score, replicate 3 = -0.442; inactive.
